Laboratory results published in PubChem BioAssay AID2685 (National Center for Advancing Translational Sciences (NCATS), 2010).
The list shows a part of the results. Further columns of the screen follow, without active or inactive calls. Most of these compounds were active or inconclusive in the main read-out, so they are no random draw. The note in brackets gives the kind of curve behind each potency; many fits are weak.

Assay: qHTS Assay for Lipid Storage Modulators in Drosophila S3 Cells;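 as to cell number change: cells counted by Cell Tracker Red CMTPX staining in the red channel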
Settings: BODIPY lipid droplet fluorescence, 18-24 h; for cell number change: measured here: cell count max response, cells fed with added oleic acid
Procedure, shortened: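 Laser-scanning cytometry quantifies lipid droplet accumulation (500–530 nm total intensity; droplet/cell object ratio) in oleic acid-fed (400 uM added) Drosophila S3 cells treated with a concentration series. 20 uM Triacsin C defined 100% inhibition.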

[1] = measured here: cell number channel AC50, cells fed with added oleic acid
[2] = measured here: lipid fluorescence (Fed channel) AC50, cells fed with added oleic acid

Row | Structure (SMILES) | cell number change [%] | AC50 [1] | AC50 [2]
1 | Cc1ccc(C(=O)NNC(=O)c2ccc(-n3cncn3)c([N+](=O)[O-])c2)cc1 | 50 | 0.13 µM [falling, full curve, poor fit] | 2.59 µM [rising, partial curve]
2 | CCOC(=O)C1=C(N)Oc2cc(O)ccc2C1c1cccnc1 (configuration not stated) | -10.8 |  | 0.00517 µM [falling, full curve, poor fit]
3 | COc1ccc(S(=O)(=O)N2CCC3(CC2)CC(=O)c2ccccc2O3)cc1C | -5.83 |  | 5.17 µM [falling, full curve, poor fit]
4 | COCCNC(=O)c1ccc2c(c1)nc(C)n2-c1cccc(F)c1 | -8.11 |  | 
5 | Cc1cccn2c(/C=N/OCc3cccc(F)c3)c(-c3ccc(Cl)cc3)nc12 | 12.9 |  | 
6 | CC(NC(=O)CN(c1cccc(C(F)(F)F)c1)S(=O)(=O)c1ccc(Cl)c([N+](=O)[O-])c1)c1ccccc1 (configuration not stated) | -35.7 | 23.1 µM [falling, single point] | 29.1 µM [falling, partial curve, poor fit]
7 | CCCCCCCCCCOC(=O)C[N+](C)(C)C/C=C(/C)Cl |  |  | 1.84 µM [falling, partial curve]
8 | O=C(COC(=O)c1ccccn1)c1ccc(Br)cc1 | -1.09 |  | 6.51 µM [falling, single point]
9 | Cn1c(=O)n(CCc2ccccc2)c(=O)c2c1nc1n2CCCN1c1ccccc1 |  |  | 4.11 µM [rising, single point]
10 | COc1ccc(CCNC(=O)c2cc(C(=O)c3cc(Cl)ccc3O)cn(CCc3ccc(OC)cc3)c2=O)cc1 | -21.1 | 1.3 µM [falling, full curve] | 
11 | O=C(NCc1cccc(F)c1)c1ccc(N2C(=O)Cn3c(cc4sccc43)C2=O)cc1 | 46.2 | 14.6 µM [rising, single point] | 0.0651 µM [falling, partial curve, poor fit]
12 | CC(=O)c1ccc(NC(=O)c2ccc(C)c(Br)c2)cc1 | 2 |  | 29.1 µM [falling, single point]
13 | CN(C1CCS(=O)(=O)C1)S(=O)(=O)c1cccs1 (configuration not stated) | 4.92 |  | 
14 | c1ccc(-c2noc(CCC3CCCC3)n2)cc1 | -51.1 |  | 
15 | O=C(Nc1ccccc1C(F)(F)F)c1cnccn1 | 13.8 |  | 
16 | CN1CCN(C(=O)C2CC(=O)N(c3ccc(Cl)cc3)C2)CC1 (configuration not stated) |  | 0.13 µM [rising, full curve, poor fit] | 
17 | Cc1nc(-c2cccc(Cl)c2)n[nH]1 | 6.45 |  | 1.84 µM [rising, full curve, poor fit]
18 | CCOC(=O)c1cnc(Nc2nc3ccccc3o2)nc1CSC(=S)N1CCCCC1 | 4.2 |  | 
19 | CSc1cccc(NC(=O)NCc2cccc(CNC(=O)Nc3cccc(SC)c3)c2)c1 | -29.7 |  | 32.6 µM [falling, single point]

Pulled by compound from above (2):
Row | Structure (SMILES) | cell number change [%] | AC50 [1] | AC50 [2]
3 | COc1ccc(S(=O)(=O)N2CCC3(CC2)CC(=O)c2ccccc2O3)cc1C | -5.83 |  | 5.17 µM [falling, full curve, poor fit]
1 | Cc1ccc(C(=O)NNC(=O)c2ccc(-n3cncn3)c([N+](=O)[O-])c2)cc1 | 50 | 0.13 µM [falling, full curve, poor fit] | 2.59 µM [rising, partial curve]

Following part:

Row | Structure (SMILES) | cell number change [%] | AC50 [1] | AC50 [2]
20 | Cc1ccc(S(=O)(=O)N(C)C)cc1NC(=O)Nc1c(-c2ccccc2)noc1C | 2.38 | 4.11 µM [falling, single point] | 6.51 µM [falling, single point]
21 | CC1(C)Cc2cccc(OCC(=O)OCc3nnc(-c4ccc([N+](=O)[O-])cc4)o3)c2O1 | -18.9 |  | 0.291 µM [falling, full curve, poor fit]
22 | Cc1cccc(NC(=O)Cn2cccc2)c1 |  |  | 29.1 µM [rising, single point]
23 | O=C(/C=C/c1ccccc1)N1CCC(Cc2ccccc2)CC1 | -24.8 |  | 1.03 µM [falling, partial curve]
24 | CC1CC(=S)Nc2ccccc2N1Cc1ccccc1 (configuration not stated) |  |  | 0.164 µM [rising, full curve, poor fit]
25 | CC(=O)c1ccc(N2CCN(C(=O)C3CCN(S(=O)(=O)c4ccc(F)cc4)CC3)CC2)cc1 | -36.7 |  | 14.6 µM [falling, partial curve, poor fit]
26 | CN(C)CCNc1oc(COc2ccc(-c3ccccc3)cc2)nc1C#N | -32.8 | 13 µM [falling, partial curve, poor fit] | 
27 | COc1ccc(OCCOc2ccc(C)nc2[N+](=O)[O-])cc1 | 38 | 10.3 µM [rising, single point] | 14.6 µM [rising, partial curve]
28 | Cc1cc(C)nc(SCc2nc3ncccn3c2Br)n1 | 6.26 |  | 2.59 µM [rising, single point]
29 | O=C(COc1ccc2c(c1)OCO2)Nc1ccc2c(c1)oc1ccccc12 | -48 | 32.6 µM [falling, single point] | 0.0184 µM [rising, single point]
30 | Cc1cc(Cl)c(S(=O)(=O)N2CCN(c3ccc(F)cc3)CC2)cc1OCC(N)=O | 4.59 | 1.84 µM [rising, partial curve, poor fit] | 
31 | OCC[C@H]1C[C@@H](O)[C@H](O)[C@@]2(Cc3ccccc3O2)O1 | -14.4 |  | 2.31 µM [rising, partial curve, poor fit]
32 | COc1ccc(CCNC(=O)C(=O)NCCCN2CCOCC2)cc1 | 80.6 |  | 29.1 µM [rising, partial curve]
33 | Cc1nn(C(=O)c2ccco2)c(C)c1Sc1ccc(Br)cc1 | 45.4 | 25.9 µM [rising, single point] | 20.6 µM [rising, partial curve, poor fit]
34 | COc1cc(CNCCO)cc(Cl)c1OCc1ccccc1Cl | 1.54 |  | 
35 | CCOc1cccc(OCCCOc2cccc3cccnc23)c1 | 17.4 |  | 10.3 µM [rising, partial curve]
36 | CN1CCC(C2(O)c3ccccc3CCc3ccccc32)CC1 | 13.2 |  | 2.91 µM [falling, single point]
37 | Cc1cc(Br)ccc1OCC(=O)NNC(=O)CCc1ccccc1 | 45.8 | 8.2 µM [rising, partial curve, poor fit] | 
38 | COc1ccc(S(=O)(=O)Oc2ccc3ccccc3c2)cc1 | 40.2 | 16.4 µM [rising, single point] | 32.6 µM [rising, single point]
